Test results: paper PMC9178409
No constants are given. Whether binding was seen depends on the method and setting. For some assays here: In cells and extracts the contact can be indirect. Some results given as binding are weak or reduced against the parent protein; the word gives no strength.

Legend:
[1] = target: T1, Fbxo7 aa 334-522 (yeast two-hybrid bait) (UniProt Q9Y3I1); experiment: two-hybrid; yeast two-hybrid screen with aa 334-522 of Fbxo7 as bait
T1 sequence: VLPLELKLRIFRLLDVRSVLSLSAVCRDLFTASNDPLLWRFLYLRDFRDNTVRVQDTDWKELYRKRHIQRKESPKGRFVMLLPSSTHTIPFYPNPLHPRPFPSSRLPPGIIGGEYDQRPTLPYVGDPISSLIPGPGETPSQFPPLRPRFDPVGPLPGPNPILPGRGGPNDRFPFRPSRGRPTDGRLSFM

[2] = target: T2, Fbxo7 (endogenous, isoforms 1 and 2) (human (endogenous in CCRF-CEM)) (UniProt Q9Y3I1); experiment: co-IP; endogenous Fbxo7 immunoprecipitated from CCRF-CEM lysate (Tween Lysis Buffer, 4°C, Protein A/G agarose), immunoblot for PFKP; also from cells treated for 24 h with DMSO, 1 μM palbociclib or 0.1 μM of either of two Cdk6 PROTACs
T2 sequence: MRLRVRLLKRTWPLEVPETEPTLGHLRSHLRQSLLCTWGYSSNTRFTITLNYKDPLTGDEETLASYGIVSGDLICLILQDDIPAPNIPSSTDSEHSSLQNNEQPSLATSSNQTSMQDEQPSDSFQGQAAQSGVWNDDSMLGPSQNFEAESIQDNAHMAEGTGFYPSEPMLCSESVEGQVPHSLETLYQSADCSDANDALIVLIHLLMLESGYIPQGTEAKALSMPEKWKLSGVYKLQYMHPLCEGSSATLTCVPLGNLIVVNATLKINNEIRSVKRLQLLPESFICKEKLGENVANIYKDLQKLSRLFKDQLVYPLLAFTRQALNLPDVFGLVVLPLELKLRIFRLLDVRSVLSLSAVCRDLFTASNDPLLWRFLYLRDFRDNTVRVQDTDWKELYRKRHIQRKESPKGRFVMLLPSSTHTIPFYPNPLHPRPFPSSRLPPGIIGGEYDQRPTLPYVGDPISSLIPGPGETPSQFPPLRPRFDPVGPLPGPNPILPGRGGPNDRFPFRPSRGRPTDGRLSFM

B1: 6-PFKP aa 385-784 (yeast two-hybrid prey) (domain or fragment, UniProt Q01813 385-784)
chain: RSFAGNLNTYKRLAIKLPDDQIPKTNCNVAVINVGAPAAGMNAAVRSAVRVGIADGHRMLAIYDGFDGFAKGQIKEIGWTDVGGWTGQGGSILGTKRVLPGKYLEEIATQMRTHSINALLIIGGFEAYLGLLELSAAREKHEEFCVPMVMVPATVSNNVPGSDFSIGADTALNTITDTCDRIKQSASGTKRRVFIIETMGGYCGYLANMGGLAAGADAAYIFEEPFDIRDLQSNVEHLTEKMKTTIQRGLVLRNESCSENYTTDFIYQLYSEEGKGVFDCRKNVLGHMQQGGAPSPFDRNFGTKISARAMEWITAKLKEARGRGKKFTTDDSICVLGISKRNVIFQPVAELKKQTDFEHRIPKEQWWLKLRPLMKILAKYKASYDVSDSGQLEHVQPWSV
Which binding [1] does the source give for B1 here?
Its binding is “binds”.

B2: PFKP (endogenous) (enzyme, UniProt Q01813 1-784)
chain: MDADDSRAPKGSLRKFLEHLSGAGKAIGVLTSGGDAQGMNAAVRAVVRMGIYVGAKVYFIYEGYQGMVDGGSNIAEADWESVSSILQVGGTIIGSARCQAFRTREGRLKAACNLLQRGITNLCVIGGDGSLTGANLFRKEWSGLLEELARNGQIDKEAVQKYAYLNVVGMVGSIDNDFCGTDMTIGTDSALHRIIEVVDAIMTTAQSHQRTFVLEVMGRHCGYLALVSALACGADWVFLPESPPEEGWEEQMCVKLSENRARKKRLNIIIVAEGAIDTQNKPITSEKIKELVVTQLGYDTRVTILGHVQRGGTPSAFDRILASRMGVEAVIALLEATPDTPACVVSLNGNHAVRLPLMECVQMTQDVQKAMDERRFQDAVRLRGRSFAGNLNTYKRLAIKLPDDQIPKTNCNVAVINVGAPAAGMNAAVRSAVRVGIADGHRMLAIYDGFDGFAKGQIKEIGWTDVGGWTGQGGSILGTKRVLPGKYLEEIATQMRTHSINALLIIGGFEAYLGLLELSAAREKHEEFCVPMVMVPATVSNNVPGSDFSIGADTALNTITDTCDRIKQSASGTKRRVFIIETMGGYCGYLANMGGLAAGADAAYIFEEPFDIRDLQSNVEHLTEKMKTTIQRGLVLRNESCSENYTTDFIYQLYSEEGKGVFDCRKNVLGHMQQGGAPSPFDRNFGTKISARAMEWITAKLKEARGRGKKFTTDDSICVLGISKRNVIFQPVAELKKQTDFEHRIPKEQWWLKLRPLMKILAKYKASYDVSDSGQLEHVQPWSV
B2 was tested. Which binding [2] did it give?
Its binding is “binds”.
